Assay results reported in PubChem BioAssay (NCATS).
Inconclusive results, whose numbers are uncertain, are shown with a selection of clear calls. A potency beside an inconclusive call is a rough fit, not a confirmed value. A note “side channel” means that the fit belongs to a control or component signal, not to the main read-out. The source made the active and inactive calls. The call rests on the fitted dose curve; in most records, active means well fitted inhibition curve with a large enough effect in the signal ratio, with a control signal flat (not every such curve was filed as active); inconclusive means small, poorly fitted or top-dose-only effect, or effect the other way, or a change in a side signal; inactive means no such curve, though single readings can be large or run the other way; the % refers to the signal ratio.

Protein sequences, listed by entry. Tags and fused reporters are not part of them. Lines headed by an entry give the natural chain unless they say otherwise; changes in a name come on top.
UniProt Q03181: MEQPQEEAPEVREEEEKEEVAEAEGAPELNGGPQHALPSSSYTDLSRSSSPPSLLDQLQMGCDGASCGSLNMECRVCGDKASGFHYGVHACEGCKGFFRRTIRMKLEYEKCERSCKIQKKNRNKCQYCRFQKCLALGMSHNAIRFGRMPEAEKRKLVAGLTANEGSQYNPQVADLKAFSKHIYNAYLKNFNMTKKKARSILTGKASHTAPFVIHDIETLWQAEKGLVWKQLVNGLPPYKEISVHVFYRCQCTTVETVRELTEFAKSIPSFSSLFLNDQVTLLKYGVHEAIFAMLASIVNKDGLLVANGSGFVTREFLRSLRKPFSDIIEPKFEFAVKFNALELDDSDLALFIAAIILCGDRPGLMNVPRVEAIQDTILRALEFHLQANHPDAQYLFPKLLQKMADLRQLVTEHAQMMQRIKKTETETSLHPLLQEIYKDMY

The molecules below were run against Peroxisome proliferator-activated receptor delta (Homo sapiens) (UniProt Q03181) (assay: qHTS assay for small molecule antagonists of peroxisome proliferator-activated receptor delta signaling (AID 588535)). Settings: HEK293T PPARd-UAS-bla, beta-lactamase FRET ratio, 18 h; activity change, negative = inhibition: at 76.7 µM (top of the series) unless noted.
How it was run: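 GeneBLAzer PPAR-delta-UAS-bla HEK293T cells in medium with 2% charcoal/dextran FBS were preincubated 5 hrs at 37 C, then given compounds, incubated 18 hrs at 37 C, and read by CCF4 beta-lactamase fluorescence; IC50 from Hill fits.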
Potency means the concentration at half of the fitted maximal effect.

Compound	Potency	activity change, negative = inhibition
CC[C@H]1O[C@]2(CC[C@@H]1C)C[C@@H]1C[C@@H](C/C=C(\C)C[C@@H](C)/C=C/C=C3CO[C@@H]4[C@H](O)C(C)=C[C@@H](C(=O)O1)[C@]34O)O2	inconclusive: 44.7 µM [falling, partial curve, poor fit]	
O=C(O)c1cc(O)c2ccccc2c1O	inconclusive: 17.8 µM [side channel, rising, partial curve, poor fit]	
CO/N=C1\C[C@]2(C[C@@H]3C[C@@H](C/C=C(\C)C[C@@H](C)/C=C/C=C4\CO[C@@H]5[C@H](O)C(C)=C[C@@H](C(=O)O3)[C@]45O)O2)O[C@H](/C(C)=C/C(C)C)[C@H]1C	inconclusive: 2 µM [fluorescent, side channel, partial curve]	
Cc1ccc2nc(-c3ccc(N)cc3)sc2c1S(=O)(=O)O		inconclusive: 20%
Nc1ccc(N)c2c1C(=O)c1c(N)ccc(N)c1C2=O		inconclusive: 10.7%
CCCCCCCC/C=C\CCCCCCCCCCCCC	inactive	
CCN(Cc1c(F)cccc1Cl)c1c([N+](=O)[O-])cc(C(F)(F)F)cc1[N+](=O)[O-]	inactive	
C[C@@H]1CC2(OC[C@]3(C)O[C@H]23)O[C@H]2C[C@@]3(C)[C@@H]4CC[C@H]5C(C)(C)C(O[C@@H]6OC[C@@H](O)[C@H](O)[C@H]6O)CC[C@@]56C[C@@]46CC[C@]3(C)[C@@H]12 (some centres not stated)	inconclusive: 44.7 µM [fluorescent, side channel, partial curve]	
O=C=NCCCCCCN=C=O	inactive	
COCCO		inconclusive: 33% [at 2.03 mM]
O=C(O)C1(C(=O)Nc2ccc(Cl)cc2Cl)CC1	inconclusive: 39.8 µM [side channel, rising, single point]	
Cc1ccc2c(c1[N+](=O)[O-])C(=O)c1ccccc1C2=O		inconclusive: 8.68%
CCCCC(CC)CN1C(=O)C2C3C=CC(C3)C2C1=O (configuration not stated)		inconclusive: 52.7%
CCCCCCCCCC[N+](C)(C)Cc1ccccc1		inconclusive: -8.62%
O=c1[nH]sc2ccccc12		inconclusive: -80.1%
CCCCCCCCCCCC(=O)OC	inconclusive: 15.8 µM [side channel, rising, partial curve, poor fit]	
Cc1cc(Cc2cc(C)cc(C(C)(C)C)c2O)c(O)c(C(C)(C)C)c1	inconclusive: 63.1 µM [side channel, rising, partial curve, poor fit]	

Looked up by compound from above, 2 records:
Compound	Potency	activity change, negative = inhibition
CCN(Cc1c(F)cccc1Cl)c1c([N+](=O)[O-])cc(C(F)(F)F)cc1[N+](=O)[O-]	inactive	
O=c1[nH]sc2ccccc12		inconclusive: -80.1%
